Reference: patent publication US12042530B2, “Target peptides for immunotherapy and diagnostics” (University of Virginia Patent Foundation, priority 2012, dated 2024)

tested on: HLA-DR; test: HLA-DR-associated phosphopeptides on melanoma cells and EBV-transformed B cells; parameters: species or system human; key: Melanoma and transformed B cells are specified by M and B, respectively.; Melanoma and transformed B cells are specified by M and B, respectively.; M/B: Melanoma (M) and/or Transformed B-Cells (B); conditions: Class II MHC (DRB1*0404, 0101 or DRB4*0103)

Row | Substance | M/B (cells on which the Class II MHC phosphopeptide is presented)
1 | 472 (APSTYAHLSPAK; SITE (1)..(12): One or more of the listed amino acids can be phosphorylated as set forth in the Tables; listed as Homo sapiens) [compound 472] | M/B
2 | 520 (TKSVKALSSLHGDD; SITE (1)..(14): One or more of the listed amino acids can be phosphorylated as set forth in the Tables; listed as Homo sapiens) [compound 520] | M/B
3 | 542 (NRAMRRVSSVPSR; SITE (1)..(13): One or more of the listed amino acids can be phosphorylated as set forth in the Tables; listed as Homo sapiens) [compound 542] | M/B
4 | 479 (SGGDDDWTHLSSKEVDPST; SITE (1)..(19): One or more of the listed amino acids can be phosphorylated as set forth in the Tables; listed as Homo sapiens) [compound 479] | M/B
5 | 466 (EPASPAASISRLSGEQVDGKG; SITE (1)..(21): One or more of the listed amino acids can be phosphorylated as set forth in the Tables; listed as Homo sapiens) [compound 466] | M/B
6 | 516 (RSYSPDHRQK; SITE (1)..(10): One or more of the listed amino acids can be phosphorylated as set forth in the Tables; listed as Homo sapiens) [compound 516] | M/B
7 | 518 (FDKHTLGDSDNES; SITE (1)..(13): One or more of the listed amino acids can be phosphorylated as set forth in the Tables; listed as Homo sapiens) [compound 518] | M/B
8 | 602 (GTLRRSDSQQAVK; SITE (1)..(13): One or more of the listed amino acids can be phosphorylated as set forth in the Tables; listed as Homo sapiens) [compound 602] | M/B
9 | 551 (VLKSRKSSVTEE; SITE (1)..(12): One or more of the listed amino acids can be phosphorylated as set forth in the Tables; listed as Homo sapiens) [compound 551] | M/B

tested on: cultured melanocytes; test: HLA-A*0201-associated phosphopeptides from cultured melanocytes (mass spectrometry); parameters: species or system human; key: −: not detected; ++: 5-50 copies/cell; +++: 50-500 copies/cell; conditions: not given

Row | Substance | Copies/cell
10 | KLLpSPSNEKL (KLLSPSNEKL; phosphoserine; SITE (1)..(10): One or more of the listed amino acids can be phosphorylated as set forth in the Tables; listed as Homo sapiens) [SEQ ID NO: 403] | −
11 | RLQpSTSERL (RLQSTSERL; phosphoserine; SITE (1)..(9): One or more of the listed amino acids can be phosphorylated as set forth in the Tables; listed as Homo sapiens) [SEQ ID NO: 411] | −
12 | SLLTpSPPKA (SLLTSPPKA; phosphoserine; SITE (1)..(9): One or more of the listed amino acids can be phosphorylated as set forth in the Tables; listed as Homo sapiens) [SEQ ID NO: 419] | −
13 | VLLpSPVPEL (VLLSPVPEL; phosphoserine; SITE (1)..(9): One or more of the listed amino acids can be phosphorylated as set forth in the Tables; listed as Homo sapiens) [SEQ ID NO: 424] | −
14 | VMIGpSPKKV (VMIGSPKKV; phosphoserine; SITE (1)..(9): One or more of the listed amino acids can be phosphorylated as set forth in the Tables; listed as Homo sapiens) [SEQ ID NO: 426] | −
15 | RQIpSQDVKL (RQISQDVKL; phosphoserine; SITE (1)..(9): One or more of the listed amino acids can be phosphorylated as set forth in the Tables; listed as Homo sapiens) [SEQ ID NO: 414] | ++ (5-50 copies/cell)
16 | KLFPDpTPLAL [SEQ ID NO: 443] | −
17 | RVApSPTSGV (RVASPTSGV; phosphoserine; SITE (1)..(9): One or more of the listed amino acids can be phosphorylated as set forth in the Tables; listed as Homo sapiens) [SEQ ID NO: 418] | +++ (50-500 copies/cell)
18 | KLIDIVpSSQKV | −
19 | ILKpSPEIQRA (ILKSPEIQRA; phosphoserine; SITE (1)..(10): One or more of the listed amino acids can be phosphorylated as set forth in the Tables; listed as Homo sapiens) [SEQ ID NO: 397] | −
20 | TLApSPSVFKST (TLASPSVFKST; phosphoserine; SITE (1)..(11): One or more of the listed amino acids can be phosphorylated as set forth in the Tables; listed as Homo sapiens) [SEQ ID NO: 422] | −
21 | KLMpSPKADVKL (KLMSPKADVKL; phosphoserine; SITE (1)..(11): One or more of the listed amino acids can be phosphorylated as set forth in the Tables; listed as Homo sapiens) [SEQ ID NO: 405] | −
22 | RTFpSPTYGL (RTFSPTYGL; phosphoserine; SITE (1)..(9): One or more of the listed amino acids can be phosphorylated as set forth in the Tables; listed as Homo sapiens) [SEQ ID NO: 457] | ++ (5-50 copies/cell)
23 | RQLpSSGVSEI (RQLSSGVSEI; phosphoserine; SITE (1)..(10): One or more of the listed amino acids can be phosphorylated as set forth in the Tables; listed as Homo sapiens) [SEQ ID NO: 415] | +++ (50-500 copies/cell)
24 | IMDRtPEKL (IMDRTPEKL; phosphothreonine; SITE (1)..(9): One or more of the listed amino acids can be phosphorylated as set forth in the Tables; listed as Homo sapiens) [SEQ ID NO: 398] | −
